Results are given in words; binding and its absence hold for the method and conditions named. In cells and extracts the contact can be indirect. Some entries that bind do so weakly or less than the wild type.

Protein sequences, listed by entry. Tags and fused reporters are not part of them.
UniProt P40763: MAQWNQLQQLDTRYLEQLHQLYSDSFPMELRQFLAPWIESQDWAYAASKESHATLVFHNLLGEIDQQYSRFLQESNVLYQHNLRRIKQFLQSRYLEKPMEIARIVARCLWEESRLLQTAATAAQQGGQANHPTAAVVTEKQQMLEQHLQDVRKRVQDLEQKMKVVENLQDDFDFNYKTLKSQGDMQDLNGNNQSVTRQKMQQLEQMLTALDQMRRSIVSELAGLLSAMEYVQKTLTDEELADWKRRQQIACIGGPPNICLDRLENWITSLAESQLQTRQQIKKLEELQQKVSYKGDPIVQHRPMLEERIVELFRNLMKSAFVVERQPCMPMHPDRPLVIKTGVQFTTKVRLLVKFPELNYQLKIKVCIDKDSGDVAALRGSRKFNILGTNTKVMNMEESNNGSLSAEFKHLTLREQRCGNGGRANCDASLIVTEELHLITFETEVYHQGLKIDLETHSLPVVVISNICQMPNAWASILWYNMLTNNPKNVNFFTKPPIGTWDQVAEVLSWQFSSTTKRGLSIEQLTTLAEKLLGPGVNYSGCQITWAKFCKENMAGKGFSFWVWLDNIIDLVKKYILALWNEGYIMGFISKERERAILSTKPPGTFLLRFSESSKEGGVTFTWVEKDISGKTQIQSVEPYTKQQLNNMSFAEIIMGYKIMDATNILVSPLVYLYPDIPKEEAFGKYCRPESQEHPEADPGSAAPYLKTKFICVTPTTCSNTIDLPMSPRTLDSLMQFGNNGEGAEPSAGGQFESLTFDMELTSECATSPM

Experiment [1] concerns the target T1, Dual-specificity tyrosine-regulated kinase 4 (DYRK4), overexpressed in Huh7 cells (UniProt Q9NR20).
T1 sequence: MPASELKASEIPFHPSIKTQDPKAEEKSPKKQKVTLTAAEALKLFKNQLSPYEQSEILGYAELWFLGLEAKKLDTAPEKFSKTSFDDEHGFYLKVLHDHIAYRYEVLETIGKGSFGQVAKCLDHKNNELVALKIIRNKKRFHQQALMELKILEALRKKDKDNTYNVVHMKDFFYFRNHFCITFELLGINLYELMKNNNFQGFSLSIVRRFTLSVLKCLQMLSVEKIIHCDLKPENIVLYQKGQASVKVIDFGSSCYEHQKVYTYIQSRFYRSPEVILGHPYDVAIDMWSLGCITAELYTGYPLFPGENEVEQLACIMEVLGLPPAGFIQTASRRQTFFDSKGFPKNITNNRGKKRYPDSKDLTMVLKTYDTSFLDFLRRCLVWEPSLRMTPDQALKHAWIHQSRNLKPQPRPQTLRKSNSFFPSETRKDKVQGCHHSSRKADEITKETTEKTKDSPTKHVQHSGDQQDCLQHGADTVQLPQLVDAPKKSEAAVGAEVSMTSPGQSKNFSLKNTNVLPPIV
In words: co-IP; DYRK4 and STAT3 in Huh7 cells; Flag-beads at 4 °C for 6 h (Fig. 6B).

In experiment [2] the target is T1, Dual-specificity tyrosine-regulated kinase 4 (DYRK4), overexpressed in Huh7 cells. In words: co-IP; Huh7 cells with the pHBV1.3 plasmid, overexpressed proteins; lysate incubated with Flag-beads at 4 °C for 6 h, washed five times (Fig. 4A, 4G).
Experiment [3] deals with T2, DYRK4 N-domain (1-101 aa) (UniProt Q9NR20).
T2 sequence: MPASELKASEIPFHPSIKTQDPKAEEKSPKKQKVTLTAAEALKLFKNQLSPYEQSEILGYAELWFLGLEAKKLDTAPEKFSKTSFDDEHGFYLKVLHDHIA
In words: co-IP; DYRK4 truncation plasmids and pHBV1.3 co-transfected in Huh7 cells for 48 h; FLAG-beads enrichment (Fig. 5F).

Experiment [4] deals with T3, DYRK4 C-domain (401-520 aa) (UniProt Q9NR20).
T3 sequence: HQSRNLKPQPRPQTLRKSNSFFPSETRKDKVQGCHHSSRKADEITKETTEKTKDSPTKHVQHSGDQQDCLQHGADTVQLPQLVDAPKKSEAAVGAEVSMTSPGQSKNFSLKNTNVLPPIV
The experiment is described as above.

Experiment [5] addresses T4, DYRK4 K-domain (102-400 aa), kinase domain (UniProt Q9NR20).
T4 sequence: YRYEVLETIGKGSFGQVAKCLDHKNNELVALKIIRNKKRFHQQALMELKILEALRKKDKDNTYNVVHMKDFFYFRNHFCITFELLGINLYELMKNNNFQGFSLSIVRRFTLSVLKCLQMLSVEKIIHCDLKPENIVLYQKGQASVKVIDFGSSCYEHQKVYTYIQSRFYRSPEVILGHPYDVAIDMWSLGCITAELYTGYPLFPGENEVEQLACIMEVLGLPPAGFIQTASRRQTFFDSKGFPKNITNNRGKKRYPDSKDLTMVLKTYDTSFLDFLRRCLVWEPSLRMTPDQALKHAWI
The experiment is described as above.

For experiment [6], the target named is T5, DYRK4 in TAK1-/- HCCLM3 cells (UniProt Q9NR20).
T5 sequence: T1 sequence
In words: co-IP; TAK1-/- HCCLM3 cell line (CRISPR-Cas9) transfected with the pHBV1.3 plasmid; Flag-beads at 4 °C for 6 h (Fig. 4D).

Experiment [7] concerns the target T1, Dual-specificity tyrosine-regulated kinase 4 (DYRK4), overexpressed in Huh7 cells. In words: co-IP; DYRK4 overexpressed in Huh7 cells with the pHBV1.3 plasmid for 48 h; endogenous TAK1-TABs; Flag-beads at 4 °C for 6 h (Fig. 4B).

On to “Signal transducers and activators of transcription 3 (STAT3) (from UniProt P40763 1-770)”, for which the binding entry in experiment [1] was “binds”.

B1: TGF-beta activated kinase 1 (MAP3K7) binding protein 1 (TAB1), overexpressed in Huh7 cells (protein, UniProt Q15750 1-504)
chain: MAAQRRSLLQSEQQPSWTDDLPLCHLSGVGSASNRSYSADGKGTESHPPEDSWLKFRSENNCFLYGVFNGYDGNRVTNFVAQRLSAELLLGQLNAEHAEADVRRVLLQAFDVVERSFLESIDDALAEKASLQSQLPEGVPQHQLPPQYQKILERLKTLEREISGGAMAVVAVLLNNKLYVANVGTNRALLCKSTVDGLQVTQLNVDHTTENEDELFRLSQLGLDAGKIKQVGIICGQESTRRIGDYKVKYGYTDIDLLSAAKSKPIIAEPEIHGAQPLDGVTGFLVLMSEGLYKALEAAHGPGQANQEIAAMIDTEFAKQTSLDAVAQAVVDRVKRIHSDTFASGGERARFCPRHEDMTLLVRNFGYPLGEMSQPTPSPAPAAGGRVYPVSVPYSSAQSTSKTSVTLSLVMPSQGQMVNGAHSASTLDEATPTLTNQSPTLTLQSTNTHTQSSSSSSDGGLFRSRPAHSLPPGEDGRVEPYVDFAEFYRLWSVDHGEQSVVTAP
For the molecule B1, the binding result in experiment [2] is reported as “binds”.

B2: TAB1 in the co-IP with DYRK4 truncations (Huh7 cells) (protein, UniProt Q15750 1-504)
chain: B1 chain
Turning to B2, the binding entry is on record as “no binding” in experiment [3], “no binding” in experiment [4] and “binds” in experiment [5].

B3: TAB1 in TAK1-/- HCCLM3 cells (protein, UniProt Q15750 1-504)
chain: B1 chain
Regarding B3, the binding entry in experiment [6] is reported as “binds”.

B4: TGF-beta activated kinase 1 (TAK1), overexpressed in Huh7 cells (enzyme, UniProt O43318 1-606)
chain: MSTASAASSSSSSSAGEMIEAPSQVLNFEEIDYKEIEVEEVVGRGAFGVVCKAKWRAKDVAIKQIESESERKAFIVELRQLSRVNHPNIVKLYGACLNPVCLVMEYAEGGSLYNVLHGAEPLPYYTAAHAMSWCLQCSQGVAYLHSMQPKALIHRDLKPPNLLLVAGGTVLKICDFGTACDIQTHMTNNKGSAAWMAPEVFEGSNYSEKCDVFSWGIILWEVITRRKPFDEIGGPAFRIMWAVHNGTRPPLIKNLPKPIESLMTRCWSKDPSQRPSMEEIVKIMTHLMRYFPGADEPLQYPCQYSDEGQSNSATSTGSFMDIASTNTSNKSDTNMEQVPATNDTIKRLESKLLKNQAKQQSESGRLSLGASRGSSVESLPPTSEGKRMSADMSEIEARIAATTAYSKPKRGHRKTASFGNILDVPEIVISGNGQPRRRSIQDLTVTGTEPGQVSSRSSSPSVRMITTSGPTSEKPTRSHPWTPDDSTDTNGSDNSIPMAYLTLDHQLQPLAPCPNSKESMAVFEQHCKMAQEYMKVQTEIALLLQRKQELVAELDQDEKDQQNTSRLVQEHKKLLDENKSLSTYYQQCKKQLEVIRSQQQKRQGTS
In the case of B4, in experiment [2], the binding result is given as “binds”.

B5: endogenous TGF-beta activated kinase 1 (TAK1) (enzyme, UniProt O43318 1-606)
chain: B4 chain
With B5, the binding result in experiment [7] is given as “binds”.

B6: TGF-beta-activated kinase 1/MAP3K7 binding protein 3 (TAB3), overexpressed in Huh7 cells (protein, UniProt Q8N5C8 1-712)
chain: MAQSSPQLDIQVLHDLRQRFPEIPEGVVSQCMLQNNNNLEACCRALSQESSKYLYMEYHSPDDNRMNRNRLLHINLGIHSPSSYHPGDGAQLNGGRTLVHSSSDGHIDPQHAAGKQLICLVQEPHSAPAVVAATPNYNPFFMNEQNRSAATPPSQPPQQPSSMQTGMNPSAMQGPSPPPPPPSYMHIPRYSTNPITVTVSQNLPSGQTVPRALQILPQIPSNLYGSPGSIYIRQTSQSSSGRQTPQSTPWQSSPQGPVPHYSQRPLPVYPHQQNYQPSQYSPKQQQIPQSAYHSPPPSQCPSPFSSPQHQVQPSQLGHIFMPPSPSTTPPHPYQQGPPSYQKQGSHSVAYLPYTASSLSKGSMKKIEITVEPSQRPGTAINRSPSPISNQPSPRNQHSLYTATTPPSSSPSRGISSQPKPPFSVNPVYITYTQPTGPSCTPSPSPRVIPNPTTVFKITVGRATTENLLNLVDQEERSAAPEPIQPISVIPGSGGEKGSHKYQRSSSSGSDDYAYTQALLLHQRARMERLAKQLKLEKEELERLKSEVNGMEHDLMQRRLRRVSCTTAIPTPEEMTRLRSMNRQLQINVDCTLKEVDLLQSRGNFDPKAMNNFYDNIEPGPVVPPKPSKKDSSDPCTIERKARRISVTSKVQADIHDTQAAAADEHRTGSTQSPRTQPRDEDYEGAPWNCDSCTFLNHPALNRCEQCEMPRYT
With B6, the binding entry in experiment [2] is on record as “binds”.

B7: TAB1 N-domain (1-363 aa), N-terminal pseudophosphatase domain (domain or fragment, UniProt Q15750 1-363)
chain: MAAQRRSLLQSEQQPSWTDDLPLCHLSGVGSASNRSYSADGKGTESHPPEDSWLKFRSENNCFLYGVFNGYDGNRVTNFVAQRLSAELLLGQLNAEHAEADVRRVLLQAFDVVERSFLESIDDALAEKASLQSQLPEGVPQHQLPPQYQKILERLKTLEREISGGAMAVVAVLLNNKLYVANVGTNRALLCKSTVDGLQVTQLNVDHTTENEDELFRLSQLGLDAGKIKQVGIICGQESTRRIGDYKVKYGYTDIDLLSAAKSKPIIAEPEIHGAQPLDGVTGFLVLMSEGLYKALEAAHGPGQANQEIAAMIDTEFAKQTSLDAVAQAVVDRVKRIHSDTFASGGERARFCPRHEDMTLLVR
In the case of B7, the binding entry in experiment [2] is on record as “binds”.

B8: TGF-beta-activated kinase 1/MAP3K7 binding protein 2 (TAB2), overexpressed in Huh7 cells (protein, UniProt Q9NYJ8 1-693)
chain: MAQGSHQIDFQVLHDLRQKFPEVPEVVVSRCMLQNNNNLDACCAVLSQESTRYLYGEGDLNFSDDSGISGLRNHMTSLNLDLQSQNIYHHGREGSRMNGSRTLTHSISDGQLQGGQSNSELFQQEPQTAPAQVPQGFNVFGMSSSSGASNSAPHLGFHLGSKGTSSLSQQTPRFNPIMVTLAPNIQTGRNTPTSLHIHGVPPPVLNSPQGNSIYIRPYITTPGGTTRQTQQHSGWVSQFNPMNPQQVYQPSQPGPWTTCPASNPLSHTSSQQPNQQGHQTSHVYMPISSPTTSQPPTIHSSGSSQSSAHSQYNIQNISTGPRKNQIEIKLEPPQRNNSSKLRSSGPRTSSTSSSVNSQTLNRNQPTVYIAASPPNTDELMSRSQPKVYISANAATGDEQVMRNQPTLFISTNSGASAASRNMSGQVSMGPAFIHHHPPKSRAIGNNSATSPRVVVTQPNTKYTFKITVSPNKPPAVSPGVVSPTFELTNLLNHPDHYVETENIQHLTDPTLAHVDRISETRKLSMGSDDAAYTQALLVHQKARMERLQRELEIQKKKLDKLKSEVNEMENNLTRRRLKRSNSISQIPSLEEMQQLRSCNRQLQIDIDCLTKEIDLFQARGPHFNPSAIHNFYDNIGFVGPVPPKPKDQRSIIKTPKTQDTEDDEGAQWNCTACTFLNHPALIRCEQCEMPRHF
Consider B8, for which, in experiment [2], the binding entry is listed as “binds”.

Values taken from paper PMC12035898.
